Results are given in words; binding and its absence hold for the method and conditions named. Binding seen in cells or lysates may run through a third protein. A yes stands for co-enrichment or nearness to the bait. Other partners may have been found.
Target: AXIN1 (human (endogenous in HCT116)) (UniProt O15169)
Assay: affinity purification with mass spectrometry

Chains of the proteins cited; added tags and fusions are not shown.
UniProt O15169: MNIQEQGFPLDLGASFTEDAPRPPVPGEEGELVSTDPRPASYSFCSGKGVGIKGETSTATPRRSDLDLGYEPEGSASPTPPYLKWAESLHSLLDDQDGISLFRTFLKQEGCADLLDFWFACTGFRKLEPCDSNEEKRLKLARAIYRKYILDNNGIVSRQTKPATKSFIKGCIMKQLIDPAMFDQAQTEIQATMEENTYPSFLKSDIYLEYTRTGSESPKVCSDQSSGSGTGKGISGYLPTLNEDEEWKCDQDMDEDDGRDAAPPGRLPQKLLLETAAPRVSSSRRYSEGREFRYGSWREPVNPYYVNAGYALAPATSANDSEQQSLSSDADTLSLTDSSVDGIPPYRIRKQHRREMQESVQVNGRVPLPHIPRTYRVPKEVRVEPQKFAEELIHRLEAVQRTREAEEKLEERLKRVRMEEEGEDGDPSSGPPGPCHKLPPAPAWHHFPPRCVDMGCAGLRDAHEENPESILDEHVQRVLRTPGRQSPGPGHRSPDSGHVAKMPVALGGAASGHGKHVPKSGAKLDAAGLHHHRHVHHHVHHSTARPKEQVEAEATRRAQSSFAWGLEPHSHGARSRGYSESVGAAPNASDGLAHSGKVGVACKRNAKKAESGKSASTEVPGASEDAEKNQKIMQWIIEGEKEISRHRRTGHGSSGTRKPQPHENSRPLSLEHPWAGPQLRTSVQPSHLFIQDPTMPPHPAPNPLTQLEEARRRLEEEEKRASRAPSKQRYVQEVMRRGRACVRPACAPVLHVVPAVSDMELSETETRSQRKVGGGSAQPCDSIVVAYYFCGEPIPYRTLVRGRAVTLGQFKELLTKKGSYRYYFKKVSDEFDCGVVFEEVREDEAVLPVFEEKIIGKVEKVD
UniProt P35222: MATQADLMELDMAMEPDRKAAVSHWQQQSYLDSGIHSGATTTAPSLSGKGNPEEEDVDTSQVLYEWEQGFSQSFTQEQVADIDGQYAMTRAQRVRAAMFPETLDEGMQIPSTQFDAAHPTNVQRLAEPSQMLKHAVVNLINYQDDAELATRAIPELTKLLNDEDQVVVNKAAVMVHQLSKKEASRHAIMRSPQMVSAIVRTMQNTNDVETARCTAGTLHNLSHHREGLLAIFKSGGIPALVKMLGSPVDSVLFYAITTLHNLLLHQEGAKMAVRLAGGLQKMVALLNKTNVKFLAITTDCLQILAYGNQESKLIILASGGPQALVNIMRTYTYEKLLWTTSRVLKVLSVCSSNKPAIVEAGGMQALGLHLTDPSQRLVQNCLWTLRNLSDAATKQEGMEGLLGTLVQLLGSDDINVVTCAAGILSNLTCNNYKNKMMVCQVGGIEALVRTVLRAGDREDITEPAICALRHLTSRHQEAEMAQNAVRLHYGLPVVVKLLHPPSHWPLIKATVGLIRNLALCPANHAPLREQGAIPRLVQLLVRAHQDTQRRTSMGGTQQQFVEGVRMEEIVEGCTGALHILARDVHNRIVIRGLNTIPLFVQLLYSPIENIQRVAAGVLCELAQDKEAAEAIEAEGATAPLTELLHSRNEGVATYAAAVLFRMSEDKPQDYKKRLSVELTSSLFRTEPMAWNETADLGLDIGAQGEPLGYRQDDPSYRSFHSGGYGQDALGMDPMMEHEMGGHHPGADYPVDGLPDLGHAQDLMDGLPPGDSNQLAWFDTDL

beta-catenin (from UniProt P35222 1-781)
binding: binds

From article doi:10.1101/2025.06.13.659446
